Assay results: paper doi:10.1101/2024.09.05.611419

Protein sequences, listed by entry. Tags and fused reporters are not part of them.
UniProt P42945: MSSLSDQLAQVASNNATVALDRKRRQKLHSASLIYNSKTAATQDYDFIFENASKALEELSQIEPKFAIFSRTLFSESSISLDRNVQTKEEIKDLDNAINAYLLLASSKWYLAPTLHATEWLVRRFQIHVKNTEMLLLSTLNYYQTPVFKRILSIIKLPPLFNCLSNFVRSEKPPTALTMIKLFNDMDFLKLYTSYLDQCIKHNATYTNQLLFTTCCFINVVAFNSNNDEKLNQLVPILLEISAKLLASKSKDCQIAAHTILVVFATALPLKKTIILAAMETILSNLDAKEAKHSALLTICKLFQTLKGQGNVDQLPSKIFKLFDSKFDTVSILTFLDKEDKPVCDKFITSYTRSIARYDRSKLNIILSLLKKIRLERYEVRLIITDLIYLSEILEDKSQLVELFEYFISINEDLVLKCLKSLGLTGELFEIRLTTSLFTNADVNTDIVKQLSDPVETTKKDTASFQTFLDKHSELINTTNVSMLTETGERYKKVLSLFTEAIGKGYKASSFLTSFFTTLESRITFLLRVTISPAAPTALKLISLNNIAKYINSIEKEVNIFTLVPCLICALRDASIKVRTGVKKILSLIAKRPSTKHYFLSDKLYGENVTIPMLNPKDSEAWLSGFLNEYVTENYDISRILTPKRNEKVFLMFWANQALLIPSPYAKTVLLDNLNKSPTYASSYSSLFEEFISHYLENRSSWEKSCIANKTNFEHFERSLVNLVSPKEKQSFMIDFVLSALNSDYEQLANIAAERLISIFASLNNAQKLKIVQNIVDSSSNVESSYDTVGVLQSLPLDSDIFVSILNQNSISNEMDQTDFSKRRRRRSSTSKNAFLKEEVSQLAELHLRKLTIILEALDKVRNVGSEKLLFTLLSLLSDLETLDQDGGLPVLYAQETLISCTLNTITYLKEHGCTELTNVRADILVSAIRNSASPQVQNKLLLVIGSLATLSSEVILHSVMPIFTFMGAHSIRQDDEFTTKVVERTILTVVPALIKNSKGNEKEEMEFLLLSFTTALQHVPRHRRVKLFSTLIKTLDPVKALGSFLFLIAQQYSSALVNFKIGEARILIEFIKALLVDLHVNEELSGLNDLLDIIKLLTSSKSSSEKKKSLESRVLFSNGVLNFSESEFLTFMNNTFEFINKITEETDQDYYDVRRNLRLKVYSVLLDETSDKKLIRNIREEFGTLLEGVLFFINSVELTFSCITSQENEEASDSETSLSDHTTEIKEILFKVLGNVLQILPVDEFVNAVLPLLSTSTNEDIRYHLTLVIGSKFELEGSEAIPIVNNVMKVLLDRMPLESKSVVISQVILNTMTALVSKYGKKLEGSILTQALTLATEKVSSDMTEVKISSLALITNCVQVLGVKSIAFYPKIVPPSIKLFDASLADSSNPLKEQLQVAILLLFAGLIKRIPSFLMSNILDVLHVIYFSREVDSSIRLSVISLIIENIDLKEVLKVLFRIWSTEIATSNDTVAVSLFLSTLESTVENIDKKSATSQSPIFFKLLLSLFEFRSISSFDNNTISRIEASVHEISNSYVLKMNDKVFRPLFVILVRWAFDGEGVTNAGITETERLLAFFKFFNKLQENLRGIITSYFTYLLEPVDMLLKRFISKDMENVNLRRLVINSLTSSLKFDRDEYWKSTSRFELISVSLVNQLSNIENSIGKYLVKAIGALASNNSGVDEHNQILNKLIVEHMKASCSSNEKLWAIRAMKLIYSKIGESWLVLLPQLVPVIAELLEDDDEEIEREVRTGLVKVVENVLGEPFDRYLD
UniProt P25586: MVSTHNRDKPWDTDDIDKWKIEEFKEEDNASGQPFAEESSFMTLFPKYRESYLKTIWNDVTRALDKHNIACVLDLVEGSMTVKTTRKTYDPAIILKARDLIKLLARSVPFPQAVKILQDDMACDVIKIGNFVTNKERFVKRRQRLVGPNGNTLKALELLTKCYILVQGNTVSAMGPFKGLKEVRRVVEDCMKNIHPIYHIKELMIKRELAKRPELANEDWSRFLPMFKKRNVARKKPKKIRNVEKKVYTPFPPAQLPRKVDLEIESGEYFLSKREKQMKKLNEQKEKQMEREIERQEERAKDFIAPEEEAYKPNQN
UniProt P33322: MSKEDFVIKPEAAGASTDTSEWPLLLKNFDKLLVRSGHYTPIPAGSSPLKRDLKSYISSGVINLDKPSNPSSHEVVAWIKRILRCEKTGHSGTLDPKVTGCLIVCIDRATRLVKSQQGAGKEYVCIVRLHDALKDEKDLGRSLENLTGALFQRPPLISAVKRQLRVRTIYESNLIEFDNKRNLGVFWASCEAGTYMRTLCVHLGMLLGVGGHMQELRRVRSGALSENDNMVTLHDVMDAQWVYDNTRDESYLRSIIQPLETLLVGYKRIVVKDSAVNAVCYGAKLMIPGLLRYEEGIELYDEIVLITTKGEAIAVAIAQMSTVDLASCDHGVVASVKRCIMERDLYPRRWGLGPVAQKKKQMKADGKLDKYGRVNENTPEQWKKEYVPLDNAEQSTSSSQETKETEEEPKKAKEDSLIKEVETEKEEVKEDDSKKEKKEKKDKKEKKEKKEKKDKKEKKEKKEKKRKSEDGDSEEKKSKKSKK
UniProt P32495: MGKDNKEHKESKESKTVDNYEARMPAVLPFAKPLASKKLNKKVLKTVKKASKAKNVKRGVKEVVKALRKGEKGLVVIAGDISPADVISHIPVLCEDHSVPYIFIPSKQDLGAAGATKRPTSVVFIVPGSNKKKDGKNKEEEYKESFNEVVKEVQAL
UniProt Q6Q547: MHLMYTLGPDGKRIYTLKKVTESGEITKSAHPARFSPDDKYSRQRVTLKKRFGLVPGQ
UniProt P28007: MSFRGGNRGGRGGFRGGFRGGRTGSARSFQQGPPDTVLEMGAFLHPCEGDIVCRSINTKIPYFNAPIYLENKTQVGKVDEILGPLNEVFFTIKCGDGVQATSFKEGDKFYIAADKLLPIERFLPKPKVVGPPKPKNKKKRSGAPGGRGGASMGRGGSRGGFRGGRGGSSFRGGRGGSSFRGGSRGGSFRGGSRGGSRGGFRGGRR
UniProt Q05022: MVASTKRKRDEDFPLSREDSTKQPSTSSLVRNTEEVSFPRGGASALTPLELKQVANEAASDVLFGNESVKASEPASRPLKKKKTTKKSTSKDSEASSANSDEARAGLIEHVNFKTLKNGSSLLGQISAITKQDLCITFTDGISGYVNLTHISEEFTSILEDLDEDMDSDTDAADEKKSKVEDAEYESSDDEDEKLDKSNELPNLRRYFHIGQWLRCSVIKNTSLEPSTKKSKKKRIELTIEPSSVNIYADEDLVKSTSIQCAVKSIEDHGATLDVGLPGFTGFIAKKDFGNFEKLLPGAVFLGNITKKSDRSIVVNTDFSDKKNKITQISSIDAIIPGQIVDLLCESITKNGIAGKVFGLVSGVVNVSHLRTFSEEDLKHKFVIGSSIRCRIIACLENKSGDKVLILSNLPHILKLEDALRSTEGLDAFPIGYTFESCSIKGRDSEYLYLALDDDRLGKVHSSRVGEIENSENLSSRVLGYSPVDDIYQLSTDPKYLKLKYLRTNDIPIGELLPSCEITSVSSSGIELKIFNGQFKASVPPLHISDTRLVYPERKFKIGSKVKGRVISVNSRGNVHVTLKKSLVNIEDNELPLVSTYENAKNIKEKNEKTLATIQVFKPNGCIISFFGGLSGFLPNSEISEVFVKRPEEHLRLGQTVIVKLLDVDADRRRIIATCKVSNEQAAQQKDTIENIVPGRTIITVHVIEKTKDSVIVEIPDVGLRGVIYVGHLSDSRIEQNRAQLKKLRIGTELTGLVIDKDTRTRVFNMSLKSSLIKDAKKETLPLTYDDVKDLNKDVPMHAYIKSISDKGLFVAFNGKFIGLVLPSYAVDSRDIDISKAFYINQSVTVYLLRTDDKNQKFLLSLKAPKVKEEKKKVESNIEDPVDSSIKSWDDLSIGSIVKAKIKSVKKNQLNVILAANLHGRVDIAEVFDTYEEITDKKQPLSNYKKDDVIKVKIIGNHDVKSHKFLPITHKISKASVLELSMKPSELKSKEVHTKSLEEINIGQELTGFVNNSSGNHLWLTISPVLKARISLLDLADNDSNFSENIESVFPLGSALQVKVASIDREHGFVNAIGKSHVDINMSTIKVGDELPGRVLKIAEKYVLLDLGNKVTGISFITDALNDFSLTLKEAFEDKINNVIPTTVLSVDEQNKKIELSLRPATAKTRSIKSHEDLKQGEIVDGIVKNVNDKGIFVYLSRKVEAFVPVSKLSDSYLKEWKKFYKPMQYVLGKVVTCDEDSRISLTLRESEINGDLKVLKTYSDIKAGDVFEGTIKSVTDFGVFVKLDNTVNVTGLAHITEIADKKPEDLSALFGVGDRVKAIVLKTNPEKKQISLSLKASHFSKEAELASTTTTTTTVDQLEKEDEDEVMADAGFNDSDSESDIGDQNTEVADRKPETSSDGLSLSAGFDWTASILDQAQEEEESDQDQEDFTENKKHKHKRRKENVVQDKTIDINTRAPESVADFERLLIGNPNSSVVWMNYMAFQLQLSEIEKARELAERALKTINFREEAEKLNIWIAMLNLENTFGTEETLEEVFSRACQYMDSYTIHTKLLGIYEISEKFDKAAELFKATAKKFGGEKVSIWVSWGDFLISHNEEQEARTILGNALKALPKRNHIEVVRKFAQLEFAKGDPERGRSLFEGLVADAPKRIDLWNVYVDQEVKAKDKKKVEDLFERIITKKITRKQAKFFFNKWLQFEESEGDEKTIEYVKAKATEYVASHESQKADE

Columns and labels:
Test in all cases: affinity purification with mass spectrometry
[1] = biological target: T1, Noc4-FTpA (S. cerevisiae) (UniProt Q06512)
T1 sequence: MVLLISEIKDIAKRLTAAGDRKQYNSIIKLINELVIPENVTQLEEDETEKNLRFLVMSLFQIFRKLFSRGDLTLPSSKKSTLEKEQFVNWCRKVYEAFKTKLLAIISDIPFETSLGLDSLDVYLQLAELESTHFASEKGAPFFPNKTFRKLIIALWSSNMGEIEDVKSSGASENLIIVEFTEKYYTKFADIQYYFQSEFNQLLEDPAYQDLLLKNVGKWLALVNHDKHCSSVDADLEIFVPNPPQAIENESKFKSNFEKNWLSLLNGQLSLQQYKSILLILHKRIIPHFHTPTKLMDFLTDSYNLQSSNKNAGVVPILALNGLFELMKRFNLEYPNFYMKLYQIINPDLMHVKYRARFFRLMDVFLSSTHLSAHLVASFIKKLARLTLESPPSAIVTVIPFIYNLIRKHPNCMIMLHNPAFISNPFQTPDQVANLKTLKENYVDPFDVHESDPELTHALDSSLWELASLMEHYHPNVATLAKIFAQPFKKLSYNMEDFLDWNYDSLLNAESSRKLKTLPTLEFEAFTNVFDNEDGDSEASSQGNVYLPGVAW

[2] = biological target: Utp10-FTpA (S. cerevisiae) (UniProt P42945)
[3] = biological target: T2, Kri1-FTpA (S. cerevisiae) (UniProt P42846)
T2 sequence: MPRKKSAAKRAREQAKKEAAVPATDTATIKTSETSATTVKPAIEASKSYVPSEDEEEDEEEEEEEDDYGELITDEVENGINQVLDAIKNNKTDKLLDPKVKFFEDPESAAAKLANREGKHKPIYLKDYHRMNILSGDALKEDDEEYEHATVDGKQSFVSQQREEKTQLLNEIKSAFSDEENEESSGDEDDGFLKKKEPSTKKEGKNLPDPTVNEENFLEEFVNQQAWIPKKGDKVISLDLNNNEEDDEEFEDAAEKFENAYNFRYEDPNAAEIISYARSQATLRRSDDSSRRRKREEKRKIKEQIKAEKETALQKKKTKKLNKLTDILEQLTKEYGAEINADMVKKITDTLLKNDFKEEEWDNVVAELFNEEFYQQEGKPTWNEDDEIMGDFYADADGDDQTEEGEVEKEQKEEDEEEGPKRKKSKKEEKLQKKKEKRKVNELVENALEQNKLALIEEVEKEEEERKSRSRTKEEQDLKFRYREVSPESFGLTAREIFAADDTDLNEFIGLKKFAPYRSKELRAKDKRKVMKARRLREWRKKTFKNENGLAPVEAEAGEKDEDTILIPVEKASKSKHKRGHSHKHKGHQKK

[4] = biological target: T3, protA-TEV-tagged Utp23 (S. cerevisiae) (UniProt Q12339)
T3 sequence: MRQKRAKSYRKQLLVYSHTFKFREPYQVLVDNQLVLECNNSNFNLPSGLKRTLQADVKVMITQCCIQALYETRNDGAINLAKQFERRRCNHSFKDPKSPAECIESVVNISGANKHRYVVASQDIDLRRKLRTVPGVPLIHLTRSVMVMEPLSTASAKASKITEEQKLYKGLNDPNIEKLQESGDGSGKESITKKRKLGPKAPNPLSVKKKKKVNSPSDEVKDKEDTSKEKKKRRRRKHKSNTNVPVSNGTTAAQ

[5] = biological target: Krr1 (wild type), second bait of the split-tag purification Utp23-Krr1 (S. cerevisiae) (UniProt P25586)
[6] = biological target: T4, Utp23-FTpA (S. cerevisiae) (UniProt Q12339)
T4 sequence: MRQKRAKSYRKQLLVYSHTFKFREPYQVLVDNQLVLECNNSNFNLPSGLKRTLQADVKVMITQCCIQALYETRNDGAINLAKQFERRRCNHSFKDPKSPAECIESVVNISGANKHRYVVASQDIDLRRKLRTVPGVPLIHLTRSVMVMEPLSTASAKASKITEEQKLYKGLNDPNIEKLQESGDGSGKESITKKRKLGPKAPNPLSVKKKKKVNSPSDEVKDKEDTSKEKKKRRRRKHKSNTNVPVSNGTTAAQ

| Molecule | binding [1] | binding [2] | binding [3] | binding [4] | binding [5] | binding [6] |
| --- | --- | --- | --- | --- | --- | --- |
| Cbf5 (from UniProt P33322 1-483) (enzyme) | binds | binds |  |  |  |  |
| Nhp2 (from UniProt P32495 1-156) | binds | binds |  |  |  |  |
| Nop10 (from UniProt Q6Q547 1-58) | binds | binds |  |  |  |  |
| Gar1 (from UniProt P28007 1-205) | binds | binds |  |  |  |  |
| Rrp5 (from UniProt Q05022 1-1729) | binds | binds | binds |  |  |  |
| Mrd1 (protein, UniProt Q06106 1-887) MSRIIVKGLPVYLTDDNLREHFTKRLRQKHSHQAVNGSGPDLITDVKILRDRNGESRRFGFIGYRNEEDAFDAVEYFNGSFINTSKIEVSMAKSFADPRVPQPMKEKRREALKRFREKEEKLLQEENRKKKKVDENKHSNIDDEIRKNKQLQEFMETMKPSSQVTSWEKVGIDKSIEDEKLKREEEDSSVQGNSLLAHALALKEENNKDEAPNLVIENESDDEYSALNRNRDEDQEDAGEEEKMISISNLKDTDIGLVNDDANSDEKENEKRRNLAQDEKVSDLDWFKQRRVRIKESEAETREKSSSYATEQNESLDTKKEEQPERAVPQKTDEELAIEKINQTGRLFLRNILYTSKEEDFRKLFSPFGELEEVHVALDTRTGQSKGFAYVLFKDSKNAVNAYVELDKQIFQGRLLHILPGEEKKSHRLDEFDLKNMPLKKQKELKRKAAASRQTFSWNSLYMNQDAVLGSVAAKLGLEKSQLIDAENSSSAVKQALAEAHVIGDVRKYFESKGVDLTKFSQLKSTNQRDDKVILVKNFPFGTTREELGEMFLPYGKLERLLMPPAGTIAIVQFRDTTSARAAFTKLSYKRFKDGIIYLERGPKDCFTKPAEADDLINNTSAKEEENPVEVKPSSNDLMEANKDVTEGSSNAHDEDVIDGPTVSIFIKNLNFSTTNQNLTDRFKVFTGFVVAQVKTKPDPKHQGKTLSMGFGFVEFRTKEQANAVIAAMDGTVIDGHKIQLKLSHRQASQSGNTKTKSNKKSGKIIVKNLPFEATRKDVFELFNSFGQLKSVRVPKKFDKSARGFAFVEFLLPKEAENAMDQLHGVHLLGRRLVMQYAEEDAVDAEEEIARMTKKVRKQVATNEMAALRNGGGRKKLDVDDEENEGF |  |  |  | binds | binds |  |
| Kri1 (protein, UniProt P42846 1-591) MPRKKSAAKRAREQAKKEAAVPATDTATIKTSETSATTVKPAIEASKSYVPSEDEEEDEEEEEEEDDYGELITDEVENGINQVLDAIKNNKTDKLLDPKVKFFEDPESAAAKLANREGKHKPIYLKDYHRMNILSGDALKEDDEEYEHATVDGKQSFVSQQREEKTQLLNEIKSAFSDEENEESSGDEDDGFLKKKEPSTKKEGKNLPDPTVNEENFLEEFVNQQAWIPKKGDKVISLDLNNNEEDDEEFEDAAEKFENAYNFRYEDPNAAEIISYARSQATLRRSDDSSRRRKREEKRKIKEQIKAEKETALQKKKTKKLNKLTDILEQLTKEYGAEINADMVKKITDTLLKNDFKEEEWDNVVAELFNEEFYQQEGKPTWNEDDEIMGDFYADADGDDQTEEGEVEKEQKEEDEEEGPKRKKSKKEEKLQKKKEKRKVNELVENALEQNKLALIEEVEKEEEERKSRSRTKEEQDLKFRYREVSPESFGLTAREIFAADDTDLNEFIGLKKFAPYRSKELRAKDKRKVMKARRLREWRKKTFKNENGLAPVEAEAGEKDEDTILIPVEKASKSKHKRGHSHKHKGHQKK | binds | binds |  |  |  |  |
| Utp23 (untagged, found in Noc4 and Utp10 particles) (protein, UniProt Q12339 1-254) MRQKRAKSYRKQLLVYSHTFKFREPYQVLVDNQLVLECNNSNFNLPSGLKRTLQADVKVMITQCCIQALYETRNDGAINLAKQFERRRCNHSFKDPKSPAECIESVVNISGANKHRYVVASQDIDLRRKLRTVPGVPLIHLTRSVMVMEPLSTASAKASKITEEQKLYKGLNDPNIEKLQESGDGSGKESITKKRKLGPKAPNPLSVKKKKKVNSPSDEVKDKEDTSKEKKKRRRRKHKSNTNVPVSNGTTAAQ | binds | binds |  |  |  |  |
| Utp22 (protein, UniProt P53254 1-1237) MATSVKRKASETSDQNIVKVQKKHSTQDSTTDNGSKENDHSSQAINERTVPEQENDESDTSPESNEVATNTAATRHNGKVTATESYDIHIARETAELFKSNIFKLQIDELLEQVKLKQKHVLKVEKFLHKLYDILQEIPDWEEKSLAEVDSFFKNKIVSVPFVDPKPIPQNTNYKFNYKKPDISLIGSFALKAGIYQPNGSSIDTLLTMPKELFEKKDFLNFRCLHKRSVYLAYLTHHLLILLKKDKLDSFLQLEYSYFDNDPLLPILRISCSKPTGDSLSDYNFYKTRFSINLLIGFPYKVFEPKKLLPNRNCIRIAQESKEQSLPATPLYNFSVLSSSTHENYLKYLYKTKKQTESFVEATVLGRLWLQQRGFSSNMSHSGSLGGFGTFEFTILMAALLNGGGINSNKILLHGFSSYQLFKGVIKYLATMDLCHDGHLQFHSNPENSSSSPASKYIDEGFQTPTLFDKSTKVNILTKMTVSSYQILKEYAGETLRMLNNVVQDQFSNIFLTNISRFDNLKYDLCYDVQLPLGKYNNLETSLAATFGSMERVKFITLENFLAHKITNVARYALGDRIKYIQIEMVGQKSDFPITKRKVYSNTGGNHFNFDFVRVKLIVNPSECDKLVTKGPAHSETMSTEAAVFKNFWGIKSSLRRFKDGSITHCCVWSTSSSEPIISSIVNFALQKHVSKKAQISNETIKKFHNFLPLPNLPSSAKTSVLNLSSFFNLKKSFDDLYKIIFQMKLPLSVKSILPVGSAFRYTSLCQPVPFAYSDPDFFQDVILEFETSPKWPDEITSLEKAKTAFLLKIQEELSANSSTYRSFFSRDESIPYNLEIVTLNILTPEGYGFKFRVLTERDEILYLRAIANARNELKPELEATFLKFTAKYLASVRHTRTLENISHSYQFYSPVVRLFKRWLDTHLLLGHITDELAELIAIKPFVDPAPYFIPGSLENGFLKVLKFISQWNWKDDPLILDLVKPEDDIRDTFETSIGAGSELDSKTMKKLSERLTLAQYKGIQMNFTNLRNSDPNGTHLQFFVASKNDPSGILYSSGIPLPIATRLTALAKVAVNLLQTHGLNQQTINLLFTPGLKDYDFVVDLRTPIGLKSSCGILSATEFKNITNDQAPSNFPENLNDLSEKMDPTYQLVKYLNLKYKNSLILSSRKYIGVNGGEKGDKNVITGLIKPLFKGAHKFRVNLDCNVKPVDDENVILNKEAIFHEIAAFGNDMVINFETD | binds | binds | binds |  |  | binds |
| Rrp7 (protein, UniProt P25368 1-297) MGIEDISAMKNGFIVVPFKLPDHKALPKSQEASLHFMFAKRHQSSNSNESDCLFLVNLPLLSNIEHMKKFVGQLCGKYDTVSHVEELLYNDEFGLHEVDLSALTSDLMSSTDVNEKRYTPRNTALLKFVDAASINNCWNALKKYSNLHAKHPNELFEWTYTTPSFTTFVNFYKPLDIDYLKEDIHTHMAIFEQREAQAQEDVQSSIVDEDGFTLVVGKNTKSLNSIRKKILNKNPLSKHENKAKPISNIDKKAKKDFYRFQVRERKKQEINQLLSKFKEDQERIKVMKAKRKFNPYT | binds | binds | binds |  |  | binds |
| RNA helicase Rok1 (enzyme, UniProt P45818 1-564) MDIFRVLTRGASVKKESGPKAKAADYSVINGNDENHKEDNNESQIVKELDFFRNKRIISKVEDDREKTTENDSPNKEEKSGNDDGLIKPVITNTVEASALRKSYKGNVSGIDIPLPIGSFEDLISRFSFDKRLLNNLIENGFTEPTPIQCECIPVALNNRDVLACGPTGSGKTLAFLIPLVQQIIDDKQTAGLKGLIISPTKELANQIFIECFKLSYKIFLEKKRPLQVALLSKSLGAKLKNKVVSDKKYDIIISTPLRLIDVVKNEALDLSKVKHLIFDEADKLFDKTFVEQSDDILSACREPSLRKAMFSATIPSNVEEIAQSIMMDPVRVIIGHKEAANTNIEQKLIFCGNEEGKLIAIRQLVQEGEFKPPIIIFLESITRAKALYHELMYDRINVDVIHAERTALQRDRIIERFKTGELWCLICTDVLARGIDFKGVNLVINYDVPGSSQAYVHRIGRTGRGGRSGKAITFYTKQDSVAIKPIINVMKQSGCEVSEWMDKMAKMTRKEKESIKNGKAHKERKQITTVPKMDKAKRRRQQEMIAASKRRKNEELSKKHFSK | binds | binds | binds |  |  | binds |

No constants are given. Whether binding was seen depends on the method and setting. Binding seen in cells or lysates may run through a third protein. A yes stands for co-enrichment or nearness to the bait. Other partners may have been found. For some assays here: Sequences can lack the tags named with a protein.
